Data as given in publication PMC5014086 (2016).
Results are given in words; binding and its absence hold for the method and conditions named. Some entries that bind do so weakly or less than the wild type.

What was measured:
[1] = molecular target: T1, KRM1ECD (ectodomain of human Kremen1, construct KRM1_(ECD-TEV), after TEV protease treatment) (human) (UniProt Q96MU8); assay: crystal structure; ternary complex from an LRP6_(PE3PE4)-DKK1fl-KRM1ECD sample at 9 mg/mL; anisotropic data to 3.5 Å, 6.4 Å and 3.7 Å; molecular replacement; both purified
T1 sequence (chain, N-glycans (four glycosylation sites), treated with endoglycosidase F1): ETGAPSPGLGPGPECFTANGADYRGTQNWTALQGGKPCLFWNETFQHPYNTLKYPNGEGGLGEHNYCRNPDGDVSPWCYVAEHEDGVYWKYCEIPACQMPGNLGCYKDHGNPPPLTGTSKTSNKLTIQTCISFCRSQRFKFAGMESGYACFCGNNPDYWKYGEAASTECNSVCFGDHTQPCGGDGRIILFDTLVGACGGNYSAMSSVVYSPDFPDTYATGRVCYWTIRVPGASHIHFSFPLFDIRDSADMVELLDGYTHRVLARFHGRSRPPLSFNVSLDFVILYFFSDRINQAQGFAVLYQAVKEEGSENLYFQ

[2] = molecular target: T2, LRP6_(PE3PE4) (β-propeller/EGF repeats 3 and 4 of LRP6) (human) (UniProt O75581); assay: as above
T2 sequence: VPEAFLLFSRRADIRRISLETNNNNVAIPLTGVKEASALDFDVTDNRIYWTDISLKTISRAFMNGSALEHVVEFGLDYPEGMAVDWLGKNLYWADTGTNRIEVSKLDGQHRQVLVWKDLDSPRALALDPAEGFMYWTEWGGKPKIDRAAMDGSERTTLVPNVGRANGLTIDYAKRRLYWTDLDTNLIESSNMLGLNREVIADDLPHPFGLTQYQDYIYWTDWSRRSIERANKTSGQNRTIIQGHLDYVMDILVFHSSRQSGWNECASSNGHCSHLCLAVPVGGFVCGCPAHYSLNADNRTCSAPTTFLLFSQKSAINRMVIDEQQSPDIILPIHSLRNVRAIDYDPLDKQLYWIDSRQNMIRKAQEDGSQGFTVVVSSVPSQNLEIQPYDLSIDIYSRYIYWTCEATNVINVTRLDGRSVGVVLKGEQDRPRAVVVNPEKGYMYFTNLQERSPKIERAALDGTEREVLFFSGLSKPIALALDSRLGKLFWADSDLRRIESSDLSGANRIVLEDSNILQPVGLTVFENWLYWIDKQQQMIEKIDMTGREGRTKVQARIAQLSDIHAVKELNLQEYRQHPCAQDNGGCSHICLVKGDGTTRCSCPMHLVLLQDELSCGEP

[3] = molecular target: T1, KRM1ECD (ectodomain of human Kremen1, construct KRM1_(ECD-TEV), after TEV protease treatment) (human); assay: SEC; gel filtration of complexes co-expressed in the KRM1_(ECD-TEV) stable cell line and purified from conditioned medium; 10 mM HEPES/NaOH (pH 7.5), 150 mM NaCl; data not shown; both purified

B1: full-length DKK1 (ligand)
chain: TLNSVLNSNAIKNLPPPLGGAAGHPGSAVSAAPGILYPGGNKYQTIDNYQPYPCAEDEECGTDEYCASPTRGGDAGVQICLACRKRRKRCMRHAMCCPGNYCKNGICVSSDQNHFRGEIEETITESFGNDHSTLDGYSRRTTLSSKMYHTKGQEGSVCLRSSDCASGLCCARHFWSKICKPVLKEGQVCTKHRRKGSHGLEIFQRCYCGEGLSCRIQKDHHQASNSSRLHTCQRH
[1]
  binding: binds
[2]
  binding: binds
[3]
  binding: binds

B2: DKK1_(Linker-CRD2) in the purified complex with KRM1ECD (domain or fragment, UniProt O94907 141-266)
chain: SDQNHFRGEIEETITESFGNDHSTLDGYSRRTTLSSKMYHTKGQEGSVCLRSSDCASGLCCARHFWSKICKPVLKEGQVCTKHRRKGSHGLEIFQRCYCGEGLSCRIQKDHHQASNSSRLHTCQRH
[3]
  binding: binds

B3: DKK1_(CRD2), released from SUMO-DKK1_(Linker-TEV-CRD2) (domain or fragment, UniProt O94907 181-266)
chain: TKGQEGSVCLRSSDCASGLCCARHFWSKICKPVLKEGQVCTKHRRKGSHGLEIFQRCYCGEGLSCRIQKDHHQASNSSRLHTCQRH
[3]
  binding: binds
